Measured values from the supplement of paper PMC12819154, “High-throughput peptide-centric local stability assay extends protein–ligand identification to membrane proteins, tissues and bacteria” (Nature Structural & Molecular Biology, 2025).
The other results are listed elsewhere or left out. Most entries show no effect beyond the scatter of the controls.

By UniProt entry, the sequences of proteins in these tests, tags left out. Where a name states a change or a piece, a line headed by the entry shows the natural chain unless it says otherwise.
UniProt O35347: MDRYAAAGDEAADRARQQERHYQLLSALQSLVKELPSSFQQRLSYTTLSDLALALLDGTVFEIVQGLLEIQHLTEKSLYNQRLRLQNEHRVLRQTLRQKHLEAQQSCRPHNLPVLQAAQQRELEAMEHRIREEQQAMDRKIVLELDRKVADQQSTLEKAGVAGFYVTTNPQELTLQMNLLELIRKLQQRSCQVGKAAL
UniProt O08789: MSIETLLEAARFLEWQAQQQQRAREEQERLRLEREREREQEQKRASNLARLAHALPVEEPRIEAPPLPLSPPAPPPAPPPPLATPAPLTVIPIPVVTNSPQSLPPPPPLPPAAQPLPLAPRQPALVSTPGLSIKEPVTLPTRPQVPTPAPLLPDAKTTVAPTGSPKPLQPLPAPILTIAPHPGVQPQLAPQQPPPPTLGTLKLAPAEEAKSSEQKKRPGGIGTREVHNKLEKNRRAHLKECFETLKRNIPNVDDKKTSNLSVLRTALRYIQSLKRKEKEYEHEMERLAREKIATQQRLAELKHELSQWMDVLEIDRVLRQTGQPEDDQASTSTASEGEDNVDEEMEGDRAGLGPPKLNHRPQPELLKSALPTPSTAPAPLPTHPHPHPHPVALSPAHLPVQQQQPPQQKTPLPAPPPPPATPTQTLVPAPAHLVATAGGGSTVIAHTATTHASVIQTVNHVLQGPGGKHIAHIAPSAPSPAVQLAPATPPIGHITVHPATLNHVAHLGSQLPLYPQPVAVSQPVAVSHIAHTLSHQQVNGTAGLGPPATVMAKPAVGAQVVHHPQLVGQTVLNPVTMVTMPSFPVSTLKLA
UniProt O35226: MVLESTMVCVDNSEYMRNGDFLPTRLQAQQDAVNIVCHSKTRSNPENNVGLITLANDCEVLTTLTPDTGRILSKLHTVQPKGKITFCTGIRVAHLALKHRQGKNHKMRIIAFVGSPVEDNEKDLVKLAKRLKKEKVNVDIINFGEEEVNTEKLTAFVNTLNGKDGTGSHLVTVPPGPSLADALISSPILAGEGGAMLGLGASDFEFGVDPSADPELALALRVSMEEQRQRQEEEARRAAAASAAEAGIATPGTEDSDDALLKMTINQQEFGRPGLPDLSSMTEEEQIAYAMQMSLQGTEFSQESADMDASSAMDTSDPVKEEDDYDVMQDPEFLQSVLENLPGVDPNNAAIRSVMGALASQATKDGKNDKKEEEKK
UniProt B2RVL6: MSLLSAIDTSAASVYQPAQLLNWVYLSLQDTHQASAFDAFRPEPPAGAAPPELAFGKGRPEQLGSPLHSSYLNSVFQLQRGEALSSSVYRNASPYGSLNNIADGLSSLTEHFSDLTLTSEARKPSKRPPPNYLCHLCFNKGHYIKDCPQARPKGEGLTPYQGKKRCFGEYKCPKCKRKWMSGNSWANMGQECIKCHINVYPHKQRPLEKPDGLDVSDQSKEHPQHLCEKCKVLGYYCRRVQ
UniProt O09131: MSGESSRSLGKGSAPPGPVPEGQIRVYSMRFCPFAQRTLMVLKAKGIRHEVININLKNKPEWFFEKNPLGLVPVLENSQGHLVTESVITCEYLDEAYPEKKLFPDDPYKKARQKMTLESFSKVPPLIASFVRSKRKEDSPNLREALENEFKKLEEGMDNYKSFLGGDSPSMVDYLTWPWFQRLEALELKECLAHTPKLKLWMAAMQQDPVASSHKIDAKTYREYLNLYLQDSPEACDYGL
UniProt E9Q5K4: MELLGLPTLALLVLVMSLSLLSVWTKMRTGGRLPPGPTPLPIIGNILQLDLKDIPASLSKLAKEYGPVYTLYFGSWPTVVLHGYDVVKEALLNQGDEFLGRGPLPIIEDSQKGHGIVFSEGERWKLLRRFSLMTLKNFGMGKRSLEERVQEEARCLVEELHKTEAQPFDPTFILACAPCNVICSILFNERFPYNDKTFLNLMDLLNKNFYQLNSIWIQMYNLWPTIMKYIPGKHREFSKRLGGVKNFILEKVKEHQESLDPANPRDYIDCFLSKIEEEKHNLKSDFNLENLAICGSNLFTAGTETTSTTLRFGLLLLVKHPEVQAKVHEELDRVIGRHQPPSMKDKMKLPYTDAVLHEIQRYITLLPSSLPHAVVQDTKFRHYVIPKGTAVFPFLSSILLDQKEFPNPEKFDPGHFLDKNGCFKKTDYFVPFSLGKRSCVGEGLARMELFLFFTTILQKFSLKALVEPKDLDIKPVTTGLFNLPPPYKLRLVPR
UniProt E9QMW4: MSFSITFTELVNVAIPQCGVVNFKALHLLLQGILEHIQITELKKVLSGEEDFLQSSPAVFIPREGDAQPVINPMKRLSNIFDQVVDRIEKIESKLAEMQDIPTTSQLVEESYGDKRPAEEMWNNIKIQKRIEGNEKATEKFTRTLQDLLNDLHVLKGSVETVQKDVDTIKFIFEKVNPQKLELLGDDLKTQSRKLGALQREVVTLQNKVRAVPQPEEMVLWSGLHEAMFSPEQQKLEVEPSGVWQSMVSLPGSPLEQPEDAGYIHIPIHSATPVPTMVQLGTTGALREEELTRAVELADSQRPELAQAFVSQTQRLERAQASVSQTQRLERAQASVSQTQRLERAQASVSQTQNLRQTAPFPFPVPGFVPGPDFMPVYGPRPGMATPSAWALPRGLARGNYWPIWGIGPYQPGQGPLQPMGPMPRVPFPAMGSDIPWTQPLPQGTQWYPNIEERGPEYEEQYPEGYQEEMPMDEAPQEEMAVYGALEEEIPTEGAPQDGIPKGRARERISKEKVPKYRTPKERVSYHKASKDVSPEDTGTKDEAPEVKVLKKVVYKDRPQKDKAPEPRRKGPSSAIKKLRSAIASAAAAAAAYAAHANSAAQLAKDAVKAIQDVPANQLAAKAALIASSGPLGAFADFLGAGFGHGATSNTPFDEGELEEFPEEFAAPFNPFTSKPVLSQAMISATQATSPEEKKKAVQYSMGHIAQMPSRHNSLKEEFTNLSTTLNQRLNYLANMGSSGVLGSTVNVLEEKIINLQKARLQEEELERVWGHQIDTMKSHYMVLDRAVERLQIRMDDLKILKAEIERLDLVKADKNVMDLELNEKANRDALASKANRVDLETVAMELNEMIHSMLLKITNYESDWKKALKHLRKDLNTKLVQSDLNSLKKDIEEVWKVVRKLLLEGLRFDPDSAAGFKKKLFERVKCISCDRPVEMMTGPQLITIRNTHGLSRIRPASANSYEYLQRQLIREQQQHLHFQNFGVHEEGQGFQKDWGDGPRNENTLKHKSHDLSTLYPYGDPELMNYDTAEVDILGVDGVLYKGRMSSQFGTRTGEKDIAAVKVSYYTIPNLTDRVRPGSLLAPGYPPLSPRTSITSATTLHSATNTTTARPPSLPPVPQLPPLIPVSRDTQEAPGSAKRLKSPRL
UniProt E9PVD3: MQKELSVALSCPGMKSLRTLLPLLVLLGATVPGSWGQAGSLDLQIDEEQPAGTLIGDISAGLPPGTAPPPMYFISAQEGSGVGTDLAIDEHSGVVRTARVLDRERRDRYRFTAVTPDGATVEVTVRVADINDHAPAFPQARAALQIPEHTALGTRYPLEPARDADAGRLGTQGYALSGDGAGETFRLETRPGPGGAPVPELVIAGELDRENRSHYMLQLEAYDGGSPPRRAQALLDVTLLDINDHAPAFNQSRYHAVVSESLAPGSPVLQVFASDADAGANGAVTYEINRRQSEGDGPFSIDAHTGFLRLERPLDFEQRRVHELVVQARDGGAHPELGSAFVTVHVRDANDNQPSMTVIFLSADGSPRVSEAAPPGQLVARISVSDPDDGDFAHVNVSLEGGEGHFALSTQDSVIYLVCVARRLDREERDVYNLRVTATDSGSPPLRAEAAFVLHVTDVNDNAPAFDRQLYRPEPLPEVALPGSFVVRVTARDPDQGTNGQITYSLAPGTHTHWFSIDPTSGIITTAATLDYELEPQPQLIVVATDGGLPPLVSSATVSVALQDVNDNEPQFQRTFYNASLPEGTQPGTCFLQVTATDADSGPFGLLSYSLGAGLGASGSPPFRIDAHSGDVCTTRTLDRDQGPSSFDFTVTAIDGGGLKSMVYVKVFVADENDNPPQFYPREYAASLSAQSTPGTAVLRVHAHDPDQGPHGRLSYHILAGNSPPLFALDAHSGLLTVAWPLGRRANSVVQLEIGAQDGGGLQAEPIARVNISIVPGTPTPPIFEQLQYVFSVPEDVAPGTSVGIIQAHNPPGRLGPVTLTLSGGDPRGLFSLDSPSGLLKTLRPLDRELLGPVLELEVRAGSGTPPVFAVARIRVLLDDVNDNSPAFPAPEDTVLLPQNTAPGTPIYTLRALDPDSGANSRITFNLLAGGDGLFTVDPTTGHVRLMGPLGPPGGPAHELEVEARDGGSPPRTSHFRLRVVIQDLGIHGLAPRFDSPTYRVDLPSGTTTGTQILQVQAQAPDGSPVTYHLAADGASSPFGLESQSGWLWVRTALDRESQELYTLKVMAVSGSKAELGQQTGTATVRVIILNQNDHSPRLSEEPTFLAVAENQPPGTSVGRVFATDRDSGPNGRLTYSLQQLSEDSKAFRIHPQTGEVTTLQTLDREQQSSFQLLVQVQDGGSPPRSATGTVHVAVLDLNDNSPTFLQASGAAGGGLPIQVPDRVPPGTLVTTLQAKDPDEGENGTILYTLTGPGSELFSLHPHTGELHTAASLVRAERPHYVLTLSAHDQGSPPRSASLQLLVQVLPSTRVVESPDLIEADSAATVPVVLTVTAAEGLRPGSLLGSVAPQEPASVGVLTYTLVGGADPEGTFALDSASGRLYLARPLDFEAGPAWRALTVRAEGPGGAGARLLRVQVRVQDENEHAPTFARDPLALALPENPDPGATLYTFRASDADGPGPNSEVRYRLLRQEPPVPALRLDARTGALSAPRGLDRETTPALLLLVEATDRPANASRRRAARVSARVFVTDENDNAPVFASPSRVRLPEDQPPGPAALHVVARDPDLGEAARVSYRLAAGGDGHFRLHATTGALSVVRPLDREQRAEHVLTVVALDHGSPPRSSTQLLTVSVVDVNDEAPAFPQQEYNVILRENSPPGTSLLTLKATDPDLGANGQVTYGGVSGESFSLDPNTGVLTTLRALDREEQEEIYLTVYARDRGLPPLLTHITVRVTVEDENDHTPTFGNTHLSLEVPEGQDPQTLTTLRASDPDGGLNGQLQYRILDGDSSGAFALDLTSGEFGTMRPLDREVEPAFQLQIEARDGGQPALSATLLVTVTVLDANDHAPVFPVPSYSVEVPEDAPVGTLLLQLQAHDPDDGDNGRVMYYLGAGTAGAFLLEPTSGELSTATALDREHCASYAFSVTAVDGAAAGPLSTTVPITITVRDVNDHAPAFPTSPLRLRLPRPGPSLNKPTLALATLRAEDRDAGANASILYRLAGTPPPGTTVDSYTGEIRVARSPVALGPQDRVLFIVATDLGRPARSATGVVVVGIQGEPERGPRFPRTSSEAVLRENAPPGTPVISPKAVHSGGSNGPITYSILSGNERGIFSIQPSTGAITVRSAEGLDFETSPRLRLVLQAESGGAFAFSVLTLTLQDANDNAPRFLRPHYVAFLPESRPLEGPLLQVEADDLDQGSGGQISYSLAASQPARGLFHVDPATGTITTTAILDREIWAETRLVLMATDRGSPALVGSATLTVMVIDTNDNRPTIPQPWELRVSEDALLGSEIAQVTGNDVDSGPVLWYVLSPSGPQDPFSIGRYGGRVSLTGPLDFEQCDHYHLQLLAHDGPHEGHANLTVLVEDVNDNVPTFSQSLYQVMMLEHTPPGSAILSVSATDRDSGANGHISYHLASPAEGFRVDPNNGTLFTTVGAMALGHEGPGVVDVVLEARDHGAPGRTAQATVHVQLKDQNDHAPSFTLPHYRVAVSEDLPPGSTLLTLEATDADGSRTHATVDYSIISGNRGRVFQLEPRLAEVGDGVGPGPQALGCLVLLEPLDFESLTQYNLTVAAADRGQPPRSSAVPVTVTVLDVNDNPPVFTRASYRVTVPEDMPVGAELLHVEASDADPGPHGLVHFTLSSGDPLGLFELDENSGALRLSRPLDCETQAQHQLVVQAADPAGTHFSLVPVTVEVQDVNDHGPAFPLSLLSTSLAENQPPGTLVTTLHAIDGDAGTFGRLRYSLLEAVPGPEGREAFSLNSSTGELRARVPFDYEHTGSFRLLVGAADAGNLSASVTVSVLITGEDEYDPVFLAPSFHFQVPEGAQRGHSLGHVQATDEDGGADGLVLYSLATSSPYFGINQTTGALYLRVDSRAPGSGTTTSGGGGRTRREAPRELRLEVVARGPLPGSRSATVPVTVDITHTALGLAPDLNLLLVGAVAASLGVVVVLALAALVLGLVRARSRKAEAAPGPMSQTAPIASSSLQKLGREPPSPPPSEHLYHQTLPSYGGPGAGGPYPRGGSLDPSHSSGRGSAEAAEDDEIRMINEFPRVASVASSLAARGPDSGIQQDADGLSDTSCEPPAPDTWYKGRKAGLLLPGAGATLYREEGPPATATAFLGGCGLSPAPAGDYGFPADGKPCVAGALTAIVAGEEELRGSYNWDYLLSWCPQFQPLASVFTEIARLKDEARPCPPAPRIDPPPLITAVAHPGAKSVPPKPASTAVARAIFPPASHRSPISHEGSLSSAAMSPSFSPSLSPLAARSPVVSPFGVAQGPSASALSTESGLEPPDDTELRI

compound: CN[C@@H]1C[C@H]2O[C@@](C)([C@@H]1OC)n1c3ccccc3c3c4c(c5c6ccccc6n2c5c31)C(=O)NC4 [staurosporine]; assay: log2 fold change of tryptic peptide abundance, ligand vs vehicle (limited proteolysis) (log2 ratio); higher = more trypsin-susceptible (destabilized); details: ligand concentration: 20 uM; sample: mouse liver crude lysate; replicate design: treated separately

Target	log2 fold change
UniProt O35347 (peptide sequence: ELEAMEHR, peptide start residue: 122)	-0.666
UniProt O08789 (peptide sequence: TSNLSVLR, peptide start residue: 257)	-0.388
UniProt O35226 (peptide sequence: NGDFLPTR, peptide start residue: 18)	-0.12
UniProt B2RVL6 (peptide sequence: EHPQHLCEKCK, peptide start residue: 221)	-0.817
UniProt O09131 (peptide sequence: EALENEFKK, peptide start residue: 144)	0.655
UniProt E0CYC6 (peptide sequence: QYQDSDHK, peptide start residue: 8)	0.309
UniProt O35457 (peptide sequence: EGHGRPIELYSNLHQR, peptide start residue: 341)	0.0553
UniProt O09117 (peptide sequence: GKTEIQVNCPK, peptide start residue: 56)	-0.509
UniProt D7PDD4 (peptide sequence: GTPTVLQHFSGR, peptide start residue: 70)	-0.514
UniProt E9Q5K4 (peptide sequence: YITLLPSSLPHAVVQDTK, peptide start residue: 362)	-0.224
UniProt E9QMW4 (peptide sequence: KGPSSAIKK, peptide start residue: 570)	-0.0365
UniProt E9PVD3 (peptide sequence: ENAPPGTPVISPK, peptide start residue: 2072)	0.349
